The other results are listed elsewhere or left out.
compound: CC1Cc2ccccc2N1C(=O)C1CCCN(C1)C(=O)CCl (mixture of isomers) [TRIM25 ligand 11 (diastereomer mixture)]; assay: probe-labelled cysteine peptide fold change vs DMSO (competition) (log2 fold change); higher = less target engagement (more negative = stronger competition); details: 10 µM; THP-1; incubation time: 4 h
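Further: competitive chemoproteomic profiling in live THP-1 cells with an iodoacetamide desthiobiotin (IA-DTB) probe, comparing probe-labelled peptide intensities in compound-treated cells against DMSO-treated controls.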

Target	probe-labelled cysteine peptide fold change
HDAC4_P56524_777_LAVGCVVELVFK (UniProt P56524)	0.148
HDAC8_Q9BY41_153_KDEASGFCYLNDAVLGILR (UniProt Q9BY41)	-0.0445
HEATR5B_Q9P2D3_718_SLCHYDDSVLLGSWLQETDHK (UniProt Q9P2D3)	0.13
HERC2_O95714_4308_VACGSAHTLAWSTSK (UniProt O95714)	0.238
HDAC3_O15379_279_GHGECVEYVK (UniProt O15379)	0.0364
HDAC10_Q969S8_102_EELQALSGQFDAIYFHPSTFHCAR (UniProt Q969S8)	0.0847
HINT1_P49773_84_CAADLGLNK (UniProt P49773)	-0.0851
HIF1AN_Q9NWT6_236_CILFPPDQFECLYPYPVHHPCDR (UniProt Q9NWT6)	0.102
HDHD2_Q9H0R4_244_INPPPYLTCESFPHAVDHILQHLL (UniProt Q9H0R4)	0.0838
HCK_P08631_241_LSVPCMSSK (UniProt P08631)	0.0783
HLA-C_P04222_345+364_GGSCSQAASSNSAQGSDESLIACKA (UniProt P04222)	-0.224
HECA_Q9UBI9_434_ALPVFEQFPLVDGTLFLSPSRHDEIEYDVPCHLQGR (UniProt Q9UBI9)	0.409
HECTD1_Q9ULT8_1955_DFCEHGTK (UniProt Q9ULT8)	-0.0514
HEATR5B_Q9P2D3_1693_EACTVLGEGGDSGGLIPGK (UniProt Q9P2D3)	0.31
HINT2_Q9BX68_75_SLPADILYEDQQCLVFR (UniProt Q9BX68)	0.0654
HELQ_Q8TDG4_149_HATDFATENLCSESIK (UniProt Q8TDG4)	-0.104
HDAC10_Q969S8_508_LLCVALGQLDRPPDLAHDGR (UniProt Q969S8)	-0.0466
HGD_Q93099_180_MLVQPNEICVIQR (UniProt Q93099)	0.479
HK2_P52789_133_GSGTQLFDHIAECLANFMDK (UniProt P52789)	0.165

Target	probe-labelled cysteine peptide fold change
HECTD4_Q9Y4D8-5_275_LLLLEGGPGSPSCLLGGK (UniProt Q9Y4D8)	0.101
HCFC1_P51610_149_CYLFGGLANDSEDPK (UniProt P51610)	0.0473
HECTD1_Q9ULT8_487_GHSEVVAILQSPGDWMCPVNK (UniProt Q9ULT8)	-0.1
HERC4_Q5GLZ8_60_HTVFVLDDGTVYTCGCNDLGQLGHEK (UniProt Q5GLZ8)	0.0766
HDAC3_O15379_268_LGCFNLSIR (UniProt O15379)	-0.0735
HDAC9_Q9UKV0_353_CETQTLR (UniProt Q9UKV0)	0.0888
HMG20B_Q9P0W2_177_GGDCDGFSTFDVPIFTEEFLDQNK (UniProt Q9P0W2)	0.000124
HDAC6_Q9UBN7_523+539_CLTLTPRPATEAELLTCHSAEYVGHLR (UniProt Q9UBN7)	-0.39
HAUS6_Q7Z4H7_443_QHNQENGCR (UniProt Q7Z4H7)	0.106
HK1_P19367_256_MCINTEWGAFGDDGSLEDIRTEFDREIDR (UniProt P19367)	0.415
HDAC10_Q969S8_663_MLQCHPHLVA (UniProt Q969S8)	-0.134
HGS_O14964_185_ACGQIFCGK (UniProt O14964)	-0.0108
HCFC1_P51610_227_KSKLVIYGGMSGCR (UniProt P51610)	0.179
HDLBP_Q00341_636_RANCEAAR (UniProt Q00341)	0.136
HIP1_O00291_906_GKFEELMVCSHEIAASTAQLVAASK (UniProt O00291)	0.057
HBS1L_Q9Y450_529_LLAMPPNETCTVK (UniProt Q9Y450)	0.0519
HDDC2_Q7Z4H3_82_LALVHDMAECIVGDIAPADNIPK (UniProt Q7Z4H3)	0.0684
HEATR5B_Q9P2D3_518_TSPEAVSGYSFAMAALLGGVHQCPLGIPHAK (UniProt Q9P2D3)	0.123

— the supplement of paper PMC12067093, “Discovery and optimisation of a covalent ligand for TRIM25 and its application to targeted protein ubiquitination” (Chemical Science, 2025)
